# In all, about 340,000 compounds went through this assay and about 170 (0.05%) were called active. This list was built around the results that the source calls inconclusive (neither active nor inactive); the mix of calls is not that of the screen. Calls follow the shape of the dose curve; as a rule, active = well fitted inhibition curve with a large enough effect in the signal ratio, with a control signal flat (not every such curve was filed as active); inconclusive = small, poorly fitted or top-dose-only effect, or effect the other way, or a change in a side signal; inactive = flat fitted curve, though single readings scatter; the % refers to the signal ratio. A potency beside an inconclusive call is a rough fit, not a confirmed value.
# Assay: qHTS Assay to Find Inhibitors of Chronic Active B-Cell Receptor Signaling;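 as to activity change, negative = inhibition: plate controls were basal doxycycline-induced cells for no effect and cells given 10 µM MG132 for full effect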
# Conditions: ABC-DLBCL IkBa-CBG/CBR reporter, luminescence ratio (green luciferase fused to IkBa over red control in TMD8 lymphoma cells), 4 h; activity change, negative = inhibition: at 46.1 µM (top of the series)
# Procedure, shortened: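 Doxycycline induced both beetle luciferases in TMD8 lymphoma cells; IKK-driven degradation limits the IkappaBalpha-fused green signal, while red luminescence normalises for cell number and nonspecific effects. Compounds tested up to 46 uM, 4 hrs.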
# Potency is read from the fitted curve at half-maximal effect.
Compound,Potency,"activity change, negative = inhibition"
COCCCNC(=S)N/N=C/c1ccc(OC)cc1,"inconclusive: 14.1 µM [falling, single point]",–
c1ccc(CCN=C2CCCc3c2[nH]c2ccccc32)cc1,"inconclusive: 35.5 µM [falling, single point]",–
Cc1ccc(-n2ncc3c(NCCCn4ccnc4)ncnc32)cc1C,–,inconclusive: 7.43%
Cc1cc(N(CCO)CCO)ccc1N=Nc1cc(F)ccc1F,–,inconclusive: 11.3%
CC(C)(C)OC(=O)C(C)(C)O/N=C(\C(=O)O)c1csc(N)n1,–,inactive
CCc1c(C)nc2ncnn2c1NCCc1ccc(OC)c(OC)c1,–,inactive
CCCCCCCc1ccc(-c2ccc(O)cc2)nc1,–,inconclusive: -0.116%
CNC(=S)N1CCN(c2ccc([N+](=O)[O-])cc2)CC1,–,inconclusive: 8.45%
Cc1ccc(Cl)cc1NC1=C/C(=N\S(=O)(=O)c2cccs2)c2ccccc2C1=O,–,inconclusive: -18.4%
Cc1cc2c(C)cc(=O)[nH]c2cc1NC(=O)CCl,–,inconclusive: -8.12%
CCOC(=O)C1=C(CP(=O)(c2ccccc2)c2ccccc2)NC(=O)NC1c1ccc(Cl)cc1 (stereo not drawn),–,inconclusive: 26.8%
CCOC(=O)C1CCN(CC(C)(C)NS(=O)(=O)c2ccc(Cl)cc2)CC1,–,inactive
COc1ccccc1NC(=O)CSc1nc2sc3c(c2c(=O)n1-c1ccccc1)CCN(C)C3,"inconclusive: 7.94 µM [falling, partial curve]",–
O=C(CSc1nncs1)N1c2ccccc2Sc2ccccc21,–,inactive
CC(=O)Nc1ccc(OCC(O)Cn2c3ccccc3c3ccccc32)c(C)c1 (stereo not drawn),–,inactive
COc1ccc(CNC(=O)C(=O)NCC(c2ccco2)S(=O)(=O)c2ccc(Cl)cc2)cc1 (stereo not drawn),–,inconclusive: -0.328%
COc1ccc(C(=O)Nc2ccc(O)c3c(=O)cc(-c4cccc(Cl)c4)oc23)cc1,–,inactive
O=C(O)C1CC=CCC1C(=O)N1CC=C(c2ccccc2)CC1 (stereo not drawn),"inconclusive: 8.91 µM [falling, partial curve, poor fit]",–
Cc1occc1C(=O)Nc1cc(S(=O)(=O)N2CCOCC2)ccc1OC(C)C,–,inconclusive: -0.834%
CSc1nc2c(cc1C#N)CCCCC2,–,inconclusive: -0.262%
CCOc1ccccc1Nc1sc(C(=O)c2ccccc2)c(N)c1C(=O)Nc1ccc(F)cc1,–,inactive
O=C(Cc1n[nH]c(=O)[nH]c1=O)N/N=C/CCc1ccccc1,"inconclusive: 31.6 µM [rising, single point]",–
CSc1nncc(-c2ccc(F)c(F)c2)n1,"inconclusive: 0.708 µM [falling, full curve, poor fit]",–
Cc1ccc(NS(=O)(=O)c2ccc(-c3csc(C)n3)s2)c(C)c1,–,inactive
CCN1C(=NCc2ccc(OC)cc2)N[C@@H](c2ccccc2)C(C(=O)OC)=C1C,–,inactive
O=C(CCSc1ccccc1)NCCSCc1ccccc1,–,inconclusive: 6.74%

# Single values from the results shown:
# Value for `Cc1ccc(-n2ncc3c(NCCCn4ccnc4)ncnc32)cc1C` under activity change, negative = inhibition: inconclusive: 7.43%
# Value for `CCN1C(=NCc2ccc(OC)cc2)N[C@@H](c2ccccc2)C(C(=O)OC)=C1C` under activity change, negative = inhibition: inactive
# Value for `Cc1ccc(NS(=O)(=O)c2ccc(-c3csc(C)n3)s2)c(C)c1` under activity change, negative = inhibition: inactive
# Value for `COCCCNC(=S)N/N=C/c1ccc(OC)cc1` under Potency: inconclusive: 14.1 µM [falling, single point]

# (more compounds)

Compound,Potency,"activity change, negative = inhibition"
Cc1ccccc1N1CCN(C2=NC(=O)/C(=C\c3cccs3)S2)CC1,"inconclusive: 25.9 µM [cytotoxic, single point]",–
Cc1cccc(C)c1NC(=O)CN(C)C(=O)c1ccc(-c2cccc(C(F)(F)F)c2)o1,–,inconclusive: 4.22%
Cn1c(CCNC(=O)c2cc(COc3ccc(F)c(F)c3)on2)nc2ccccc21,–,inactive
CCOC(=O)N1CCC(NC(=O)c2ccc3c(c2)sc2nc(-c4cccc(OC)c4)cn23)CC1,"inconclusive: 1.64 µM [rising, full curve]",–
CCCn1c(=O)c(Br)cn(-c2ccccc2C)c1=O,–,inconclusive: -1.1%
Cc1ccc(-c2csc(NC(=O)c3ccc(S(=O)(=O)N4CCc5ccccc54)cc3)n2)cc1,–,inconclusive: -2.13%
CCc1ccc(-n2nnnc2SCC(=O)Nc2ccc(NC(C)=O)cc2)cc1,–,inconclusive: -18.6%
CC1(C)Oc2ccc(NC(=O)c3ccco3)cc2O1,–,inconclusive: 1.53%
COc1ccccc1CC(=O)Nc1ccc(-c2noc(COc3ccc(Br)cc3)n2)cc1,"inconclusive: 0.146 µM [falling, full curve, poor fit]",–
CN(C)C=Nc1ncc2c3ccccc3n(CCN(C)C)c2c1C#N,–,inconclusive: 1.12%
Cc1ccc2nc(Cl)c(/C=N/Nc3nc(C)cc(C)n3)c(=O)n2c1,"inconclusive: 32.6 µM [falling, partial curve, poor fit]",–
Cc1ccc(NC(=O)c2ccco2)c(NC(=O)c2ccccc2C)c1,–,inconclusive: 6.03%
Cc1ccc(/C=C/c2nc3ccccc3s2)s1,"inconclusive: 2.06 µM [falling, partial curve]",–
Clc1ccccc1Nc1nc2ccccc2o1,"inconclusive: 5.8 µM [falling, partial curve, poor fit]",–
COc1cc(C2Nc3ccc4ncccc4c3C3=C2C(=O)CCC3)cc(OC)c1O (stereo not drawn),"inconclusive: 16.4 µM [falling, partial curve]",–
C/C(CC(=O)Nc1ccc2c(c1)OCCO2)=N\NC(=O)C(=O)Nc1ccccc1C,"inconclusive: 17.8 µM [falling, single point]",–
O=C(C1CC(=O)N(c2ccc(F)cc2)C1)N1CCC(c2nc3ccccc3[nH]2)CC1 (stereo not drawn),–,inactive
CC(C)OCCCn1c(=O)c2ccccc2n2c(CCC(=O)N3CCN(c4ccccn4)CC3)nnc12,–,inactive
COc1ccc(N=Nc2cc(C)ccc2O)cc1,–,inconclusive: 12.4%
CCOC(=O)c1cc(-c2ccc(/C=C3/C(=O)NC(=O)C(C#N)=C3C)o2)ccc1Cl,"inconclusive: 11.2 µM [rising, partial curve, poor fit]",–
CN(CC(=O)NCC(=O)Nc1ccc(F)cc1)C1CCS(=O)(=O)C1 (stereo not drawn),–,inactive
CC(C)(C)NC(=O)c1ccc(Sc2ccccc2)c([N+](=O)[O-])c1,–,inconclusive: 9.38%
Clc1ccc(C2[C@H]3CN(CC4CCCCC4)[C@H](c4ccccc4)C34CC2(c2ccccc2)C4)cn1 (stereo partly drawn),–,inactive
CC(C)(C)NC(=O)C(c1ccc(F)cc1)N(Cc1ccccc1Cl)C(=O)c1ccn[nH]1 (stereo not drawn),–,inconclusive: 3.64%
CC1(C)Cc2ccccc2C(CSc2ccccc2C(=O)O)=N1,"inconclusive: 20 µM [rising, partial curve, poor fit]",–
NNC(=O)c1cccc(O)c1,"inconclusive: 29.1 µM [rising, single point]",–

Compound,Potency,"activity change, negative = inhibition"
COc1ccccc1N(CC(=O)NC1CC2CCC1C2)S(=O)(=O)c1ccc(C)cc1 (stereo not drawn),"inconclusive: 35.5 µM [falling, single point]",–
CC1=Nc2cc(C(=O)O)ccc2Sc2c(C)ccc(C)c21,–,inconclusive: -0.0557%
COc1ccc(NCc2nn(CC(=O)c3ccc(Br)cc3)c3[n+]2CCCCC3)cc1,–,inactive
C/C(CC(=O)N1CCN(C=O)CC1)=N\NC(=O)c1ccc(Cl)cc1,"inconclusive: 35.5 µM [falling, single point]",–
C#CCOCCOCCOCCNc1nc(N2CCN(C(=O)CCCCCCCCCCNC(=O)[C@H]([C@@H](C)CC)n3cc(CCCCCN)nn3)CC2)nc(N2CCN(C(=O)CCCCCCCCCCNC(=O)[C@H]([C@@H](C)CC)n3cc(CCCCN=C(N)N)nn3)CC2)n1,–,inconclusive: -0.569%
CCOC(=O)/C(C(C)=O)=C1/OC(=O)c2ccccc21,–,inconclusive: -15%
Cc1nnc(SCC(=O)NCc2ccco2)n1-c1ccccc1,"inconclusive: 0.184 µM [rising, full curve, poor fit]",–
CC(=O)NC(=S)Nc1ccc(-c2nc3ccc(C)cc3s2)cc1,–,inconclusive: 5.89%
COc1ccc(/C=C/C(=O)Nc2ccc3nc4n(c(=O)c3c2)CCCC4)cc1OC,–,inactive
CCC(=NNC(=O)c1ccc2c(c1)nc(C)n2CC)c1cc(F)ccc1O,–,inconclusive: -0.756%
O=C(NCC1CC1)c1cccc2c1C(=O)c1ccc(N3CCCC3)cc1S2(=O)=O,–,inconclusive: 0.281%
O=C(N/N=C/c1ccc(OC2CSC2)cc1)c1ccccc1,–,inconclusive: -18.8%
CC(C)OC(=O)CSc1nnc(SCc2cccc3ccccc23)s1,"inconclusive: 18.4 µM [falling, partial curve]",–
Cc1ccc(-n2[nH]c(C)c(/C=N/c3ccccn3)c2=O)cc1,–,inconclusive: -1.2%
O=C(CN1CCOCC1)Nc1ccc(F)cc1,–,inconclusive: -16.5%
O=C(CC(Cc1ccccc1)C(=O)O)Nc1ccc(Cl)c(Cl)c1 (stereo not drawn),–,inconclusive: 5.42%
O=C(Cc1c[nH]c2ccccc12)NCc1cccs1,"inconclusive: 29.1 µM [falling, single point]",–
COc1ccc(C2C(C(N)=O)=C(C)Nc3nc(-c4ccccc4OC)nn32)cc1OC (stereo not drawn),"inconclusive: 20 µM [falling, single point]",–
O=C(NCc1ccccn1)C12CC3CC(CC(C3)C1)C2,–,inactive
COc1ccc(/C=C/C(=O)c2c(O)ccc3c(C)cc(=O)oc23)cc1,"inconclusive: 23.1 µM [falling, partial curve]",–
COC(=O)c1ccccc1NC(=O)c1ccccc1N(C)S(C)(=O)=O,–,inconclusive: 1.93%
CCN1CCN(CC(=O)c2ccc(OC)cc2)CC1,–,inactive
COc1ccc(/C=C2/C(=O)N(c3nc4ccccc4s3)N=C2CSc2ccc(Cl)cc2)cc1,"inconclusive: 29.1 µM [rising, single point]",–
COC(=O)c1c(-c2ccc(C)cc2)csc1NC(=O)Cc1ccc(OC)c(OC)c1,–,inconclusive: 7.81%
Cn1cccc/c1=N\c1cccc[n+]1C,–,inconclusive: -19.8%
NS(=O)(=O)c1ccc(CNC(=O)c2cc(-c3cccnc3)nc3ccc(Cl)cc23)cc1,–,inconclusive: -39.1%

# From PubChem BioAssay AID493014 (National Center for Advancing Translational Sciences (NCATS), 2011)
